Test results: US20230312741A1
Residue numbers refer to the chain shown, from its start. These are yes or no findings as the source states them, for the method shown. Some entries that bind do so weakly or less than the wild type.

What was measured:
Test in all cases: flow cytometry, GS-CHO cells with CD73 mutant
[1] = biological target: T1, CD73 mutant F183A/L184A/N186A (human) (UniProt P21589)
T1 sequence: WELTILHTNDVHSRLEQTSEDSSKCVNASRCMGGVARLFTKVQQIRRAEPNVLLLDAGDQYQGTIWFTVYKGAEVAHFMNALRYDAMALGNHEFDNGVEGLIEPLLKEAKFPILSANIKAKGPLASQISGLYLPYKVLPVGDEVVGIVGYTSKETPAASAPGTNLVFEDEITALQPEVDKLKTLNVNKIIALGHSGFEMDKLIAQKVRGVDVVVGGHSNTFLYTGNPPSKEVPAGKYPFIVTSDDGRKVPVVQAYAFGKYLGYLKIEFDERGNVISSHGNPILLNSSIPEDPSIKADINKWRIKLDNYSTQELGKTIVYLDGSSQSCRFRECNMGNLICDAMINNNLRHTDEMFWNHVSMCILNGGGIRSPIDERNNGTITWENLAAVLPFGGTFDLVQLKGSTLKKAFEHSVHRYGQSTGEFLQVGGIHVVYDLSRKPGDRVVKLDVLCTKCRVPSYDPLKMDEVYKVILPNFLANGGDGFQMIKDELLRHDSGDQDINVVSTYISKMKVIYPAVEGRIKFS

[2] = biological target: T2, CD73 mutant F265A/H304A (human) (UniProt P21589)
T2 sequence: T1 sequence with A157F, A158L, A160N, F239A, H278A

[3] = biological target: T3, CD73 mutant K145A/K147A (human) (UniProt P21589)
T3 sequence: T1 sequence with K119A, K121A, A157F, A158L, A160N

[4] = biological target: T4, CD73 mutant L157A/S155A/L159A/Q153A (human) (UniProt P21589)
T4 sequence: T1 sequence with Q127A, S129A, L131A, L133A, A157F, A158L, A160N

[5] = biological target: T5, CD73 mutant R109A/K136A/E134A (human) (UniProt P21589)
T5 sequence: T1 sequence with R83A, E108A, K110A, A157F, A158L, A160N

Measured: binding

B1: ADI-37505 (antibody, human IgG4 S228P, kappa, F234A L235A, V domains shown)
VH: QVQLVESGGGLVQPGGSLRLSCAASGFTFSNYAMTWVRQAPGKGLEWVSAISGRGTATYYADSVKGRFTISRDNSKNTLYLQMNSLRAEDTAVYYCARGGPYGSGSYWDTFDYWGQGTLVTVSS
VL: EIVMTQSPATLSVSPGERATLSCRASQSVSSNLAWYQQKPGQAPRLLIYGASTRATGIPARFSGSGSGTEFTLTISSLQSEDFAVYYCQQYTNHYTFGGGTKVEIKR
binds: all assays above

B2: ADI-37506 (antibody, human IgG4 S228P, kappa, F234A L235A, V domains shown)
VH: B1 VH with Q1E, V5L, Y32L, T35S, G55A, A57S
VL: B1 VL
binds: all assays above
